Experimental data from the supplement of paper PMC8728848.
The other results are listed elsewhere or left out.

Key:
Test in all cases: glycan array binding signal (z-score within array); higher = stronger binding
Conditions in all cases: glycan notation: IUPAC condensed, linker removed
[1] = molecular target: Gal(b1-3)GlcNAc(b1-2)Man(a1-3)[Gal(b1-3)GlcNAc(b1-2)Man(a1-6)]Man(b1-4)GlcNAc(b1-4)GlcNAc
Method in brief: (§1)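 Glycan array data came from 3228 arrays in the Consortium for Functional Glycomics database, and only arrays with an available protein sequence were kept. Glycan names were put into IUPAC-condensed notation, and columns mapping to the same glycan were averaged. The binding signal is a within-array Z-score, averaged across arrays of one protein sequence run at different concentrations or buffers and across linkers. A negative Z-score can be read as non-binding.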

[2] = molecular target: Gal(b1-3)GlcNAc(b1-2)Man(a1-3)[Gal(b1-3)GlcNAc(b1-2)Man(a1-6)]Man(b1-4)GlcNAc(b1-4)[Fuc(a1-6)]GlcNAc
Method in brief: as §1

[3] = molecular target: Gal(b1-3)GlcNAc(b1-2)Man(a1-3)[GlcNAc(b1-4)][Gal(b1-3)GlcNAc(b1-2)Man(a1-6)]Man(b1-4)GlcNAc(b1-4)GlcNAc
Method in brief: as §1

[4] = molecular target: Gal(b1-3)GlcNAc(b1-2)[Gal(b1-3)GlcNAc(b1-6)]Man(a1-6)[Gal(b1-3)GlcNAc(b1-2)Man(a1-3)]Man(b1-4)GlcNAc(b1-4)GlcNAc
Method in brief: as §1

[5] = molecular target: Gal(b1-3)GlcNAc(b1-3)Gal(b1-3)GlcNAc
Method in brief: as §1

[6] = molecular target: Gal(b1-3)GlcNAc(b1-3)Gal(b1-4)Glc
Method in brief: as §1

[7] = molecular target: Gal(b1-3)GlcNAc(b1-3)Gal(b1-4)GlcNAc
Method in brief: as §1

[8] = molecular target: Gal(b1-3)GlcNAc(b1-3)Gal(b1-4)GlcNAc(b1-2)Man(a1-3)[Gal(b1-3)GlcNAc(b1-3)Gal(b1-4)GlcNAc(b1-2)Man(a1-6)]Man(b1-4)GlcNAc(b1-4)GlcNAc
Method in brief: as §1

[9] = molecular target: Gal(b1-3)GlcNAc(b1-3)Gal(b1-4)GlcNAc(b1-2)[Gal(b1-3)GlcNAc(b1-3)Gal(b1-4)GlcNAc(b1-6)]Man(a1-6)[Gal(b1-3)GlcNAc(b1-3)Gal(b1-4)GlcNAc(b1-2)Man(a1-3)]Man(b1-4)GlcNAc(b1-4)[Fuc(a1-6)]GlcNAc
Method in brief: as §1

[10] = molecular target: Gal(b1-3)GlcNAc(b1-3)Gal(b1-4)GlcNAc(b1-3)Gal(b1-4)GlcNAc(b1-2)[Gal(b1-3)GlcNAc(b1-3)Gal(b1-4)GlcNAc(b1-3)Gal(b1-4)GlcNAc(b1-6)]Man(a1-6)[Gal(b1-3)GlcNAc(b1-3)Gal(b1-4)GlcNAc(b1-3)Gal(b1-4)GlcNAc(b1-2)Man(a1-3)]Man(b1-4)GlcNAc(b1-4)[Fuc(a1-6)]GlcNAc
Method in brief: as §1

[11] = molecular target: Gal(b1-3)GlcNAc(b1-3)Gal(b1-4)GlcNAc(b1-6)[Gal(b1-3)GlcNAc(b1-3)]Gal(b1-4)Glc
Method in brief: as §1

[12] = molecular target: Gal(b1-3)GlcNAc(b1-3)Gal(b1-4)[Fuc(a1-3)]GlcNAc
Method in brief: as §1

[13] = molecular target: Gal(b1-3)GlcNAc(b1-3)Gal(b1-4)[Fuc(a1-3)]GlcNAc(b1-6)[Gal(b1-3)GlcNAc(b1-3)]Gal(b1-4)Glc
Method in brief: as §1

[14] = molecular target: Gal(b1-3)GlcNAc(b1-3)GalNAc
Method in brief: as §1

[15] = molecular target: Gal(b1-3)GlcNAc(b1-6)Gal(b1-4)GlcNAc
Method in brief: as §1

[16] = molecular target: Gal(b1-3)GlcNAc(b1-6)GalNAc
Method in brief: as §1

[17] = molecular target: Gal(b1-3)GlcNAc(b1-6)[Gal(b1-3)]GalNAc
Method in brief: as §1

Gal(b1-3)GlcNAc6S = molecular target: Gal(b1-3)GlcNAc6S
Method in brief: as §1

[18] = molecular target: Gal(b1-3)[Fuc(a1-4)]GlcNAc
Method in brief: as §1

[19] = molecular target: Gal(b1-3)[Fuc(a1-4)]GlcNAc(b1-2)Man
Method in brief: as §1

[20] = molecular target: Gal(b1-3)[Fuc(a1-4)]GlcNAc(b1-2)Man(a1-3)[Gal(b1-3)[Fuc(a1-4)]GlcNAc(b1-2)Man(a1-6)]Man(b1-4)GlcNAc(b1-4)[Fuc(a1-6)]GlcNAc
Method in brief: as §1

[21] = molecular target: Gal(b1-3)[Fuc(a1-4)]GlcNAc(b1-3)Gal(b1-3)[Fuc(a1-4)]GlcNAc
Method in brief: as §1

[22] = molecular target: Gal(b1-3)[Fuc(a1-4)]GlcNAc(b1-3)Gal(b1-4)[Fuc(a1-3)]GlcNAc
Method in brief: as §1

[23] = molecular target: Gal(b1-3)[Fuc(a1-4)]GlcNAc(b1-6)GalNAc
Method in brief: as §1

[24] = molecular target: Gal(b1-3)[GlcNAc(b1-6)]GalNAc
Method in brief: as §1

[25] = molecular target: Gal(b1-3)[Neu5Ac(a2-6)]GalNAc
Method in brief: as §1

[26] = molecular target: Gal(b1-3)[Neu5Ac(a2-6)]GlcNAc(b1-4)Gal(b1-4)Glc
Method in brief: as §1

[27] = molecular target: Gal(b1-3)[Neu5Ac(b2-6)]GalNAc
Method in brief: as §1

Gal(b1-4)Gal = molecular target: Gal(b1-4)Gal
Method in brief: as §1

[28] = molecular target: Gal(b1-4)GalNAc(a1-3)[Fuc(a1-2)]Gal(b1-4)GlcNAc
Method in brief: as §1

B1: SHCBP1-GST (Homo sapiens), Q8NEM2 (protein)
chain: MADGSLTGGGLEAAAMAPERMGWAVEQELASLEKGLFQDEDSCSDCSYRDKPGSSLQSFMPEGKTFFPEIFQTNQLLFYERFRAYQDYILADCKASEVQEFTAEFLEKVLEPSGWRAVWHTNVFKVLVEITDVDFAALKAVVRLAEPYLCDSQVSTFTMECMKELLDLKEHRLPLQELWVVFDDSGVFDQTALAIEHVRFFYQNIWRSWDEEEEDEYDYFVRCVEPRLRLHYDILEDRVPSGLIVDYHNLLSQCEESYRKFLNLRSSLSNCNSDSEQENISMVEGLKLYSEMEQLKQKLKLIENPLLRYVFGYQKNSNIQAKGVRSSGQKITHVVSSTMMAGLLRSLLTDRLCQEPGEEEREIQFHSDPLSAINACFEGDTVIVCPGHYVVHGTFSIADSIELEGYGLPDDIVIEKRGKGDTFVDCTGADIKISGIKFVQHDAVEGILIVHRGKTTLENCVLQCETTGVTVRTSAEFLMKNSDLYGAKGAGIEIYPGSQCTLSDNGIHHCKEGILIKDFLDEHYDIPKISMVNNIIHNNEGYGVVLVKPTIFSDLQENAEDGTEENKALKIQTSGEPDVAERVDLEELIECATGKMELCARTDPSEQVEGNCEIVNELIAASTQKGQIKKKRLSELGITQADDNLMSQEMFVGIVGNQFKWNGKGSFGTFLF
With B1 the “glycan array binding signal (z-score)” value [1] was 1.03, the “glycan array binding signal (z-score)” value [2] was -0.384 and the “glycan array binding signal (z-score)” value [3] was 2.98. For the same binder, the “glycan array binding signal (z-score)” value [4] was 0.295, the “glycan array binding signal (z-score)” value [5] was -0.156 and the “glycan array binding signal (z-score)” value [6] was -0.306. For the same binder, the “glycan array binding signal (z-score)” value [7] was -0.333, the “glycan array binding signal (z-score)” value [8] was -0.029 and the “glycan array binding signal (z-score)” value [9] was 0.698. For the same binder, the “glycan array binding signal (z-score)” value [10] was 3.45, the “glycan array binding signal (z-score)” value [11] was -0.213 and the “glycan array binding signal (z-score)” value [12] was -0.464. For the same binder, the “glycan array binding signal (z-score)” value [13] was 0.731, the “glycan array binding signal (z-score)” value [14] was 0.539 and the “glycan array binding signal (z-score)” value [15] was -0.78. The “glycan array binding signal (z-score)” value [16] was 0.036, the “glycan array binding signal (z-score)” value [17] was -0.122 and the “glycan array binding signal (z-score)” value (Gal(b1-3)GlcNAc6S) was -0.184. The “glycan array binding signal (z-score)” value [18] was -0.321, the “glycan array binding signal (z-score)” value [19] was -0.069 and the “glycan array binding signal (z-score)” value [20] was -0.03. For the same binder, the “glycan array binding signal (z-score)” value [21] was -0.592, the “glycan array binding signal (z-score)” value [22] was 0.129 and the “glycan array binding signal (z-score)” value [23] was 0.404. For the same binder, the “glycan array binding signal (z-score)” value [24] was -0.463, the “glycan array binding signal (z-score)” value [25] was -1.01 and the “glycan array binding signal (z-score)” value [26] was -0.056. For the same binder, the “glycan array binding signal (z-score)” value [27] was -0.157, the “glycan array binding signal (z-score)” value (Gal(b1-4)Gal) was -0.879 and the “glycan array binding signal (z-score)” value [28] was -0.536.
